Values joined by “and” are separate entries in the source; they are usually repeats but may differ in a detail not shown here. Equal entries are not always repeated. About 6,100 (1.1%) of roughly 580,000 compounds were called active. The shares of active, inactive and inconclusive entries below differ from those in the screen. Calls come from the whole dose curve; as a rule, active = well fitted inhibition curve with a large enough effect; inconclusive = small, poorly fitted or top-dose-only effect, or another doubt; inactive = no such curve, though single readings can be large or run the other way. Where the call is inconclusive, the potency comes from a doubtful curve fit.
These compounds were tested against Polyunsaturated fatty acid lipoxygenase ALOX12 (Homo sapiens) (UniProt P18054) (assay: Primary qHTS assay for inhibitors of human arachidonate 12S-lipoxygenase (ALOX12): Round 2). Conditions: purified 12hLO, xylenol orange hydroperoxide absorbance; activity change, negative = inhibition: at 108 µM (top of the series).
How it was run: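 Purified human 12hLO at 150 nM in 25 mM Hepes, 0.01% Triton X-100, pH 7.0, preincubated 15 min at room temperature with compound. Reaction started with 40 uM arachidonic acid, 30 min at room temperature. Hydroperoxide measured by Fe-xylenol orange, 573/405 nm absorbance ratio.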
% is set by controls: 0 for no effect and ±100 for the full control effect; potency is the fitted concentration of half-maximal effect.

Chains of the proteins cited; added tags and fusions are not shown. Lines headed by an entry give the natural chain unless they say otherwise; changes in a name come on top.
UniProt P18054: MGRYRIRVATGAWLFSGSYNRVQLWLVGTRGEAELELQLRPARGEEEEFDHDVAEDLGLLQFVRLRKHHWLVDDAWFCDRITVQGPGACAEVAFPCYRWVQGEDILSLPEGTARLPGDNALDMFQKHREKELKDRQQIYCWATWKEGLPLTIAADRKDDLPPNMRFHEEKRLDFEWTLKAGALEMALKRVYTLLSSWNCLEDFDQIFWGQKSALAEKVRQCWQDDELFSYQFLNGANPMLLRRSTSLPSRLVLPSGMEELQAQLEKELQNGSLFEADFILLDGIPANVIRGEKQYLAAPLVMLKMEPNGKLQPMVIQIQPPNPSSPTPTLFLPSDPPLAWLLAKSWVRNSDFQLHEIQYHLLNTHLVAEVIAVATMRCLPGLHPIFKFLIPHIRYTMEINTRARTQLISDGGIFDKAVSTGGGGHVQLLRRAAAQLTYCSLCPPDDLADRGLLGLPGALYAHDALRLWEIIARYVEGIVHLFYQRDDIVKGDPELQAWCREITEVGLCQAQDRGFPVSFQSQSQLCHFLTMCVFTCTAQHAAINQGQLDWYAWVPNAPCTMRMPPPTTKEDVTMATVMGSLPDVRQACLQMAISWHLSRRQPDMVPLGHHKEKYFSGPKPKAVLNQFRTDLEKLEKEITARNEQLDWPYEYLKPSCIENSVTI

| SMILES | Potency | activity change, negative = inhibition |
| --- | --- | --- |
| CCCCP(=O)(O)CCC(=O)O | inconclusive: 2 µM [inhibitor, single point] | – |
| CN(C)CCN=Cc1c(O)n(Cc2ccc3c(c2)OCO3)c(=S)[nH]c1=O | inconclusive: 50.1 µM [inhibitor, partial curve, poor fit] | – |
| O=C(O)c1c[nH]c2ccc(S(=O)(=O)N(CCCl)CCCl)cc12 | inconclusive: 0.447 µM [inhibitor, full curve, poor fit] | – |
| O=c1[nH]c(=O)n(CCC2=CCCCC2)c(O)c1/C=N/Nc1cccc2ccccc12 | inconclusive: 44.7 µM [inhibitor, partial curve, poor fit] | – |
| COc1ccc(Cc2nccc3cc(OC)c(OC)cc23)cc1OC | inconclusive: 89.1 µM [inhibitor, partial curve, poor fit] | – |
| CC(=NCCN1CCCCC1)c1c(O)n(Cc2ccccc2)c(=O)[nH]c1=O | inconclusive: 50.1 µM [inhibitor, partial curve, poor fit] | – |
| Cc1nn(C)cc1C1SCC(=O)Nc2c1c(C)nn2-c1ccccc1 (stereo not drawn) | – | inactive: 4.97% |
| O=C1c2ccccc2-n2nncc2C2c3cc(Br)ccc3CCN12 (stereo not drawn) | inconclusive: 126 µM [inhibitor, single point] | – |
| Fc1ccc(CNCCc2ccccc2)cc1 | inconclusive: 2.82 µM [inhibitor, full curve, poor fit] | – |
| O=C(N/N=C/c1c(O)n(CCC2=CCCCC2)c(=S)[nH]c1=O)c1ccccc1 | active: 28.2 µM | – |
| CCCCOP(=O)(OCCCC)/C(C#N)=C(/C)O | inconclusive: 35.5 µM [inhibitor, partial curve, poor fit] | – |
| CCCC(=O)c1cn(Cc2ccc(C#N)cc2)c2ccccc12 | inconclusive: 12.6 µM [inhibitor, full curve, poor fit] | – |
| Cc1nc(Cl)sc1C(=O)Nc1ccc2ccccc2c1 | inconclusive: 50.1 µM [inhibitor, partial curve, poor fit] | – |
| Nc1ccc(Cl)c(Cl)c1 | – | inactive: 1.46% |
| CC(C)NC(=O)CN(C)C(=O)c1cn(Cc2ccccc2)c2ccccc12 | – | inactive: -6% |
| Cc1ccccc1NC(=S)NC(NC(=O)CF)C(Cl)(Cl)Cl (stereo not drawn) | – | inactive: -28.3% |
| CCN(CC)C(=O)c1ccc(NC(=O)c2ccc(-c3nn(C)c(=O)c4ccccc34)cc2)cc1 | inactive | – |
| COc1ccccc1CCNC1CCC(C(C)(C)C)CC1 (stereo not drawn) | inconclusive: 44.7 µM [inhibitor, partial curve, poor fit] | – |
| Oc1ccc(/C=N/NP(=S)(c2ccccc2)c2ccccc2)cc1O | active: 31.6 µM | – |
| COc1cc(CN2CC3CC(C2)c2cccc(=O)n2C3)cc(OC)c1OC (stereo not drawn) | inconclusive: 6.31 µM [inhibitor, full curve, poor fit] | – |
| CC12Nc3ccccc3C(=O)N1Cc1cnnn1-c1cc3c(cc12)OCO3 (stereo not drawn) | inconclusive: 5.01 µM [inhibitor, full curve, poor fit] | – |

| SMILES | Potency | activity change, negative = inhibition |
| --- | --- | --- |
| CN1CCN(CCC(C#N)(c2ccccc2)c2ccccc2)CC1 | inconclusive: 35.5 µM [inhibitor, partial curve, poor fit] | – |
| O=C(CCN1CC=C(c2ccccc2)CC1)NCc1ccccc1 | inconclusive: 4.47 µM [inhibitor, partial curve, poor fit] | – |
| CC1CCC(C(C)C)C(OC(=O)Cn2c(COc3ccccc3)[n+](C)c3ccccc32)C1 (stereo not drawn) | inconclusive: 39.8 µM [inhibitor, partial curve, poor fit] | – |
| Oc1c(Cl)cccc1Cc1cc(Cl)cc(Cl)c1O | inconclusive: 50.1 µM [inhibitor, partial curve, poor fit] | – |
| CNCCc1c[nH]c2ccc(O)cc12 | inconclusive: 39.8 µM [inhibitor, partial curve, poor fit] and inconclusive: 891 nM [inhibitor, full curve, poor fit] | – |
| O=C(N/N=C/C1C(=O)NC(=S)N(c2ccccc2)C1=O)c1cc(Br)c(O)c(Br)c1 (stereo not drawn) | inconclusive: 25.1 µM [inhibitor, partial curve] | – |
| COc1cc2c(cc1OCC1CC1)NC(=O)C21CCN(c2nccs2)CC1 | inconclusive: 126 µM [inhibitor, partial curve, poor fit] | – |
| CC(C)(C)CN1CCCC2(CC(c3cccnc3)=NO2)C1 (stereo not drawn) | – | inactive: 3.21% [at 12.5 µM] |
| C[C@@H]1NCCc2cc(O)c(O)cc21 | inconclusive: 50.1 µM [inhibitor, partial curve, poor fit] | – |
| COc1ccc(OCC#CCN2CCNCC2)cc1 | inconclusive: 0.708 µM [inhibitor, full curve] | – |
| Cc1cccc(NC(=O)OC2CN3CCC2CC3)c1 (stereo not drawn) | inconclusive: 112 µM [inhibitor, partial curve, poor fit] | – |
| CC(=O)N1C[C@@H]2C[C@H](C1)c1ccc(NC(=O)Nc3ccccc3)c(=O)n1C2 | inconclusive: 25.1 µM [inhibitor, full curve] | – |
| CC(C)n1cnc2c(C(=O)N[C@H]3CN4CCC3CC4)cc(Cl)cc21 | inconclusive: 7.94 µM [inhibitor, partial curve, poor fit] | – |
| COc1cc2[nH]c(=S)n(-c3ccccc3)c(=O)c2cc1OC | – | inactive: 0.957% |
| CCOc1cc2c(cc1OCC)-n1cccc1C(c1cccc(F)c1)NC2 (stereo not drawn) | inconclusive: 89.1 µM [inhibitor, single point] | – |
| COc1ccccc1CN1CCN(C(=O)Cc2ccccc2)CC1 | inconclusive: 0.282 µM [inhibitor, full curve, poor fit] | – |
| CC1CC(C)CC(C)C(O)C(C#N)=CC=CCC(C2CCCC2C(=O)O)OC(=O)CC(O)C(C)C1 (stereo not drawn) | – | inactive: 5.11% |
| Oc1cc(Cl)c(Cl)c(Cl)c1 | inconclusive: 100 µM [inhibitor, single point] | – |
| COc1ccc(C(c2nnnn2Cc2ccccc2)N2CCC(n3c(=O)[nH]c4ccccc43)CC2)cc1 (stereo not drawn) | inconclusive: 112 µM [inhibitor, single point] | – |
| Cc1ccccc1N1C(=O)NC(=O)/C(=C\c2ccc3c(c2)CCCN3Cc2ccccc2)C1=O | inconclusive: 28.2 µM [inhibitor, partial curve] | – |
| COc1ccccc1N1CCN(CCc2c[nH]c3cc4c(cc23)OCO4)CC1 | inconclusive: 44.7 µM [inhibitor, partial curve] | – |

By substructure, the entries above with bromine

| SMILES | Potency | activity change, negative = inhibition |
| --- | --- | --- |
| O=C1c2ccccc2-n2nncc2C2c3cc(Br)ccc3CCN12 (stereo not drawn) | inconclusive: 126 µM [inhibitor, single point] | – |
| O=C(N/N=C/C1C(=O)NC(=S)N(c2ccccc2)C1=O)c1cc(Br)c(O)c(Br)c1 (stereo not drawn) | inconclusive: 25.1 µM [inhibitor, partial curve] | – |

(listing goes on)

| SMILES | Potency | activity change, negative = inhibition |
| --- | --- | --- |
| O=C1NCN(c2ccccc2)C12CCN(C(c1cccs1)c1nnnn1C1CCCCC1)CC2 (stereo not drawn) | inconclusive: 126 µM [inhibitor, single point] | – |
| CCNC(=O)NC[C@H]1C[C@@H]2CCN1C[C@@H]2c1cc(-c2ccccc2)nc(C)n1 | inconclusive: 35.5 µM [inhibitor, full curve, poor fit] | – |
| Cc1cc(/C=C2\C(=O)NC(=O)N(c3ccc(Br)cc3)C2=O)c(C)n1C | inconclusive: 70.8 µM [inhibitor, partial curve, poor fit] | – |
| COc1ccc(C2SCC(=O)Nc3c2c(C)nn3-c2ccccc2)cc1 (stereo not drawn) | – | inactive: 19.7% |
| COc1cc(/C=C2\C(=O)NC(=O)N(c3ccccc3)C2=O)cc(OC)c1O | inconclusive: 15.8 µM [inhibitor, full curve] | – |
| Cc1cccc(N2C(=O)NC(=O)/C(=C\c3cnc(-c4ccccc4)nc3)C2=O)c1 | inconclusive: 44.7 µM [inhibitor, partial curve] | – |
| O=C1NC(=S)NC(=O)C1=Cc1ccc(OCc2ccccc2)cc1 | inconclusive: 44.7 µM [inhibitor, partial curve, poor fit] | – |
| CCOC(=O)c1cc2c(cn1)[C@H](CCO)NC2 | inconclusive: 3.16 µM [inhibitor, full curve, poor fit] | – |
| COC(=O)C1=C(c2ccc(C(C)=O)cc2)C[C@@H]2CC[C@H]1N2C(=O)NC1CC1 | – | inactive: 13.4% |
| C[C@]12CC[C@H](O)C[C@H]1CCC1C2CC[C@]2(C)[C@@H](c3ccc(=O)oc3)C[C@H]3O[C@]132 (stereo partly drawn) | – | inactive: 1.63% |
| COc1cc(C=C2C(=O)NC(=O)NC2=O)ccc1OCc1ccc([N+](=O)[O-])cc1 | inconclusive: 39.8 µM [inhibitor, partial curve, poor fit] | – |
| Clc1ccc2c(c1)C(c1ccccc1Cl)=NCc1nnc(Br)n1-2 | – | inactive: 22.6% |
| COC(=O)C1=C(c2ccc(F)cc2OCc2ccccc2)C[C@@H]2CC[C@H]1N2C(=O)NC1Cc2ccccc2C1 | inconclusive: 31.6 µM [inhibitor, partial curve, poor fit] | – |
| CCCN1CCC2(CC1)NC(CO)(CO)CO2 | inconclusive: 2.82 µM [inhibitor, partial curve, poor fit] | – |
| c1ccc2c(CN3CCN(C4CCCCC4)CC3)c[nH]c2c1 | – | inactive: 182% |
| CN(C)c1ccc(CC(=O)N2CCN(Cc3ccccc3)CC(O)C2)cc1 (stereo not drawn) | – | inactive: 75.1% |
| CC1(C)C(C(=O)N2C[C@@H](C(=O)O)C[C@@H](C(=O)NCc3ccncc3)C2)C1(C)C | – | inactive: -2.32% |
| O=C(Nc1ccc([N+](=O)[O-])c(C(F)(F)F)c1)C12CC3CC(CC(C3)C1)C2 | inconclusive: 22.4 µM [inhibitor, single point] | – |
| CCCCCCC(=O)N/N=C/c1c(O)n(CCCC)c(=S)[nH]c1=O | inconclusive: 79.4 µM [inhibitor, partial curve, poor fit] | – |
| COc1cc2c(cc1OCc1ccccc1)N(C(=O)COc1ccccc1)CC21CCN(C)CC1 | inconclusive: 20 µM [inhibitor, full curve, poor fit] | – |
| Oc1cc(Cl)ccc1Oc1ccc(Cl)cc1Cl | inconclusive: 30.1 µM [inhibitor, partial curve] and inconclusive: 112 µM [inhibitor, partial curve, poor fit] and inconclusive: 141 µM [inhibitor, single point] | – |

Source: PubChem BioAssay AID1671190 (National Center for Advancing Translational Sciences (NCATS), 2021)
